Test results as given in publication doi:10.1101/2020.12.18.423402.
No constants are given. Whether binding was seen depends on the method and setting. Binding seen in cells or lysates may run through a third protein. Some entries that bind do so weakly or less than the wild type. Where a sequence is shown, tags or fusion partners need not be part of it.

The chains behind the UniProt entries cited, without tags or fusion partners. Residues count along the entry.
UniProt Q01974, residues 34-943: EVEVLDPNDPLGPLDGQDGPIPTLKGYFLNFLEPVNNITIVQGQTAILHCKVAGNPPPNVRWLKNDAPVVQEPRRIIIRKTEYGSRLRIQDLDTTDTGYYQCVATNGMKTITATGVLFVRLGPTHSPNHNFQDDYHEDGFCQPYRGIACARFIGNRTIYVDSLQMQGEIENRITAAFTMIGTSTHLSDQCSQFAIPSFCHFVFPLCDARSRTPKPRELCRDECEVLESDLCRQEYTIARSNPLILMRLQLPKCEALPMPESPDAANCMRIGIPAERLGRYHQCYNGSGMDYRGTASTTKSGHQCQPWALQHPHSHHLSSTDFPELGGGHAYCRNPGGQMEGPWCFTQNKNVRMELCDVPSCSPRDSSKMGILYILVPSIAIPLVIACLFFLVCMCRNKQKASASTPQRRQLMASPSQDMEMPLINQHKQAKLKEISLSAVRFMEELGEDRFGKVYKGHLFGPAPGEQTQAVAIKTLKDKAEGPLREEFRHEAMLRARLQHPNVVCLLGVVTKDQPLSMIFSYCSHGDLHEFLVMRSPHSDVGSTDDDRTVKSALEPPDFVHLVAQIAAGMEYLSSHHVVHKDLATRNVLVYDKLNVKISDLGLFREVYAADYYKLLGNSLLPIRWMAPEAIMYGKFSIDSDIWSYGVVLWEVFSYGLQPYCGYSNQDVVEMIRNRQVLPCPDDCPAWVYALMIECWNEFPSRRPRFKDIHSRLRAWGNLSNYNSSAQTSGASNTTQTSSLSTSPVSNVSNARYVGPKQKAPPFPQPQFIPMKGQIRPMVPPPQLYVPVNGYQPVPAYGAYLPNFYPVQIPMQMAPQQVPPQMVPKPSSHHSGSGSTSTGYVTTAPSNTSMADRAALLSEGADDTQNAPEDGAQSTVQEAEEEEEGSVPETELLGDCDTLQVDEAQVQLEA

Target: T1, V5-tagged active WNT11 (UniProt O96014)
T1 sequence: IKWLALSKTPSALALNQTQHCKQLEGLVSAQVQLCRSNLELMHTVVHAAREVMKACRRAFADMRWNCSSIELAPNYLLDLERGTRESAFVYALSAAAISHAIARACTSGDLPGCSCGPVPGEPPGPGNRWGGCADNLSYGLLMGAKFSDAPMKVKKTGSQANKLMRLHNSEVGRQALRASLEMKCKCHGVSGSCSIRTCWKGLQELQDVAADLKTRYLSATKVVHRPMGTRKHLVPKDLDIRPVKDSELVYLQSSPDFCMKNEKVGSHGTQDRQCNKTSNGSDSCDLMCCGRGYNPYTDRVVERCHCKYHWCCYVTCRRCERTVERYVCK
Assay: co-IP

binding: binds
Substance: ROR2 full length (pROR2-FL) (from UniProt Q01974 34-943) (receptor)
